Results are given in words; binding and its absence hold for the method and conditions named. Binding seen in cells or lysates may run through a third protein. These calls come from enrichment with a bait or labelling near it, and not all partners need be listed. No binding means not detected with the bait.
Target: Argonaute 2 (Ago2), mouse, endogenous (mouse (endogenous in RAW 264.7 and P19)) (UniProt Q8CJG0)
Assay: affinity purification with mass spectrometry; IP of endogenous Ago2 (anti-Ago2) from mouse RAW 264.7 cell extracts, undigested or totally digested with RNase A (10 mg/ml, 30 min, room temperature); label-free quantitative LC-MS/MS; IgG IP as control

Protein sequences, listed by entry. Tags and fused reporters are not part of them.
UniProt Q8CJG0: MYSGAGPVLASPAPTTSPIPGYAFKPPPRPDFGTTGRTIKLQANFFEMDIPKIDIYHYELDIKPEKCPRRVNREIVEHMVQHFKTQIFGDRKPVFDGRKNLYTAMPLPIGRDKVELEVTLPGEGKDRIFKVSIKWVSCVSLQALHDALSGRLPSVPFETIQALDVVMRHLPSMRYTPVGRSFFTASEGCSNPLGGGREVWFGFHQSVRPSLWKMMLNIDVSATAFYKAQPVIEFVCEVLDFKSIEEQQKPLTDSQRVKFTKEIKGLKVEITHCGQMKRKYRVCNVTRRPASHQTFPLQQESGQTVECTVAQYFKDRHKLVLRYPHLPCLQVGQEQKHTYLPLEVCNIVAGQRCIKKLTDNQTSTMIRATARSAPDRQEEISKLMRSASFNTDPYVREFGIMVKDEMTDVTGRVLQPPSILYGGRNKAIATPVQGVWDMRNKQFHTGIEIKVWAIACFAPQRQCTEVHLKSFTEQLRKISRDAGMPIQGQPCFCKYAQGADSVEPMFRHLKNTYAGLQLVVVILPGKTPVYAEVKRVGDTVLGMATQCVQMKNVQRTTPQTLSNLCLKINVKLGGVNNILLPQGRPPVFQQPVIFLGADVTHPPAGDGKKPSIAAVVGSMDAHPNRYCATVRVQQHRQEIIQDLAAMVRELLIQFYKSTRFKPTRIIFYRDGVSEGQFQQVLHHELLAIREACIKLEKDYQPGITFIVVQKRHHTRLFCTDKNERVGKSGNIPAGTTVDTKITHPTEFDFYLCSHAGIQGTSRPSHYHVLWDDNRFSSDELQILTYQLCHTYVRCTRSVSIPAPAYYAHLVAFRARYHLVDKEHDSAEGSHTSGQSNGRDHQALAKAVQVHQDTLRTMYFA

B1: Trans-Activation Responsive RNA-Binding Protein 2 (Trbp2), mouse, endogenous (protein, UniProt P97473 1-365)
chain: MSEEDQGSGTTTGCGLPSIEQMLAANPGKTPISLLQEYGTRIGKTPVYDLLKAEGQAHQPNFTFRVTVGDTSCTGQGPSKKAAKHKAAEVALKHLKGGSMLEPALEDSSSFSLLDSSPPEDTPVVAAEAAAPVPSAVLTRSPPMEMQPPVSPQQSECNPVGALQELVVQKGWRLPEYMVTQESGPAHRKEFTMTCRVERFIEIGSGTSKKLAKRNAAAKMLLRVHTVPLDARDGNEAEPDDDHFSIGVSSRLDGLRNRGPGCTWDSLRNSVGEKILSLRSCSVGSLGALGSACCSVLSELSEEQAFHVSYLDIEELSLSGLCQCLVELSTQPATVCYGSATTREAARGDAAHRALQYLRIMAGSK
binding: no binding

Reference: PMC5662751
